Results taken from PMC10904755.
These are yes or no findings as the source states them, for the method shown. Binding seen in cells or lysates may run through a third protein. Some entries that bind do so weakly or less than the wild type. For some assays here: Where a sequence is shown, tags or fusion partners need not be part of it. Each block holds one substance with its values, some of them ahead of it.

Sequences of proteins named here, by UniProt entry; tags and fusion partners are left off.
UniProt O60260: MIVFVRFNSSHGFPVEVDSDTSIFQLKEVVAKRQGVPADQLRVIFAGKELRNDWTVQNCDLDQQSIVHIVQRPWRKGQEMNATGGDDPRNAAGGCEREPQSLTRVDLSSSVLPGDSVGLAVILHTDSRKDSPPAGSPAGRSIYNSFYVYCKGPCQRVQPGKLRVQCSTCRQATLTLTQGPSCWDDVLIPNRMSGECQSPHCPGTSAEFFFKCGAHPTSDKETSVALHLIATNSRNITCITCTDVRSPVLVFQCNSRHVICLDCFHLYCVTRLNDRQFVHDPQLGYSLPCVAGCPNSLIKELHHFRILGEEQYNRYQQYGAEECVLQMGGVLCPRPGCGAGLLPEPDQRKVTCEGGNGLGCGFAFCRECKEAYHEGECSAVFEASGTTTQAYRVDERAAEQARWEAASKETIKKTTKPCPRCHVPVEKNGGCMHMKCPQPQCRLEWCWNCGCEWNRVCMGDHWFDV
UniProt Q70CQ3: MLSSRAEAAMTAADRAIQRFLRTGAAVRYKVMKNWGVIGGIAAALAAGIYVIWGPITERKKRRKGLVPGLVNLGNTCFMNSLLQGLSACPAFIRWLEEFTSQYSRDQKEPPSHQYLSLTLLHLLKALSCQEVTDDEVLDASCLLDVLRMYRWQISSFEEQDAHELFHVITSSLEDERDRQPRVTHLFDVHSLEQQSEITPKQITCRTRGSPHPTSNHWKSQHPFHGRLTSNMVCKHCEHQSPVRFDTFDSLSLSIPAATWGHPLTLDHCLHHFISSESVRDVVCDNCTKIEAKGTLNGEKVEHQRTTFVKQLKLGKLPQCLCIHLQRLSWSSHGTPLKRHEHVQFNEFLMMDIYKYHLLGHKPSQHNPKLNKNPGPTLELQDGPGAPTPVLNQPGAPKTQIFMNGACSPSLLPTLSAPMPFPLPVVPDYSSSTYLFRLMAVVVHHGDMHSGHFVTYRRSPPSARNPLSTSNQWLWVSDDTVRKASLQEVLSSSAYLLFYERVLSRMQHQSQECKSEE

Assays:
[1] = molecular target: Parkin stably expressed in BLCA cells (UniProt O60260); experiment: co-IP; 'endogenous' co-IP in T24, 5637 and UM-UC-3 cells stably expressing Parkin; mild lysis buffer, supernatant with 1 μg of antibody for 16 h, then protein A/G magnetic beads for 2 h; immunoblot
[2] = molecular target: T1, endogenous Catalase (human (endogenous in T24, 5637, UM-UC-3)) (UniProt P04040); experiment: as above
T1 sequence: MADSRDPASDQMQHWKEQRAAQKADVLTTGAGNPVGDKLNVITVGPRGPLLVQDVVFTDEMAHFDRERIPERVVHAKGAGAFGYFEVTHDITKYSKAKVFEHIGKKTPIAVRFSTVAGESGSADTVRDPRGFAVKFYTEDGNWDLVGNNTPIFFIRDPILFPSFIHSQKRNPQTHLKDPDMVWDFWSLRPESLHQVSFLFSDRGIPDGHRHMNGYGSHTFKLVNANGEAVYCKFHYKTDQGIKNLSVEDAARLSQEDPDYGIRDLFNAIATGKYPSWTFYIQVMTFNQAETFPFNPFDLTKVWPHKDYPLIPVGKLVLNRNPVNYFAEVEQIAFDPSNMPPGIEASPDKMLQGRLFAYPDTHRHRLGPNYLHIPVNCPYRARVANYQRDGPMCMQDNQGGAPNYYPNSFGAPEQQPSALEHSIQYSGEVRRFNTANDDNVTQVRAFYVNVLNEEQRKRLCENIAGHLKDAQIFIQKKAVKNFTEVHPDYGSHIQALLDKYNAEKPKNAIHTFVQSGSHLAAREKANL

[3] = molecular target: Flag-Parkin (UniProt O60260); experiment: co-IP; 293T cells transfected with the tagged plasmids; mild lysis buffer, supernatant with 1 μg of antibody for 16 h, then protein A/G magnetic beads for 2 h; immunoblot
[4] = molecular target: T2, GFP-Catalase (UniProt P04040); experiment: as above
T2 sequence: T1 sequence

- binding [1]: binds
Substance: USP30 in BLCA cells (from UniProt Q70CQ3 1-517) (enzyme)

- binding [2]: binds
Substance: Parkin stably expressed in BLCA cells (from UniProt O60260 1-465) (enzyme)

- binding [3]: binds
- binding [4]: binds
Substance: Myc-USP30 (from UniProt Q70CQ3 1-517) (enzyme)

- binding [4]: binds
Substance: Flag-Parkin (from UniProt O60260 1-465) (enzyme)
